{"source": "PubChem BioAssay AID1224826, NIAID, 2016", "test": "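Knock-downs that raise or lower Tnf reporter signal after endotoxin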 (primary screen)", "cell system": "RAW264.7 G9 macrophages from mouse bearing reporters for p65 (GFP) and the Tnf promoter (mCherry)", "reagents": "siRNA pool against mouse genes, 100 nM", "duration": "16 h of LPS stimulation, after 2 days of siRNA transfection", "conditions": "bacterial lipopolysaccharide (Salmonella minnesota R595), 10 ng/ml", "read-out": "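Nuclear mCherry signal of the Tnf promoter reporter measured by imaging after background removal, scaled to each plate median and turned into robust z-scores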", "scale": "Tnf reporter robust z-score: higher = stronger Tnf promoter reporter signal after LPS", "hit rule": "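Called active when robust z-score is at most -1.3, matching the median of the Tlr4 knock-down control, or over 3; control wells and wells with under 50 cells never active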", "calls": "active = Tnf reporter clearly lowered or raised; inactive = no clear change in Tnf reporter", "note": "The deposit covers about 17,000 reagents; below is an unselected part. Over the whole deposit, about 1,110 (6.6%) got an active call. 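Active means lowered or raised reporter signal; replicate intensities are raw and not normalised per plate.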 Further read-outs or replicates are left out here."}
{"target": "Srbd1", "Tnf reporter robust z-score": -0.56, "fewer than 50 cells in well": "enough cells in well", "Call": "inactive"}
{"target": "Rock2", "Tnf reporter robust z-score": -1.19, "fewer than 50 cells in well": "enough cells in well", "Call": "inactive"}
{"target": "Gsn", "Tnf reporter robust z-score": -0.73, "fewer than 50 cells in well": "enough cells in well", "Call": "inactive"}
{"target": "Cacna2d3", "Tnf reporter robust z-score": -0.53, "fewer than 50 cells in well": "enough cells in well", "Call": "inactive"}
{"target": "Chrne", "Tnf reporter robust z-score": -0.4, "fewer than 50 cells in well": "enough cells in well", "Call": "inactive"}
{"target": "Kcne3", "Tnf reporter robust z-score": 0.9, "fewer than 50 cells in well": "enough cells in well", "Call": "inactive"}
{"target": "BC048671", "Tnf reporter robust z-score": 0.05, "fewer than 50 cells in well": "enough cells in well", "Call": "inactive"}
{"target": "Zbtb18", "Tnf reporter robust z-score": 0.15, "fewer than 50 cells in well": "enough cells in well", "Call": "inactive"}
{"target": "Tsn", "fewer than 50 cells in well": "fewer than 50 cells per well; well left out of calls", "Call": "inactive"}
{"target": "Gna14", "Tnf reporter robust z-score": 0.05, "fewer than 50 cells in well": "enough cells in well", "Call": "inactive"}
{"target": "Psd", "Tnf reporter robust z-score": 2.94, "fewer than 50 cells in well": "enough cells in well", "Call": "inactive"}
{"target": "Zic4", "Tnf reporter robust z-score": -1.34, "fewer than 50 cells in well": "enough cells in well", "Call": "active"}
{"target": "Zfp595", "Tnf reporter robust z-score": -0.09, "fewer than 50 cells in well": "enough cells in well", "Call": "inactive"}
{"target": "Mtnr1b", "Tnf reporter robust z-score": 1.59, "fewer than 50 cells in well": "enough cells in well", "Call": "inactive"}
{"target": "Vmn1r202", "Tnf reporter robust z-score": 1.67, "fewer than 50 cells in well": "enough cells in well", "Call": "inactive"}
{"target": "Abtb2", "Tnf reporter robust z-score": 0.75, "fewer than 50 cells in well": "enough cells in well", "Call": "inactive"}
{"target": "Tmprss3", "Tnf reporter robust z-score": 0.35, "fewer than 50 cells in well": "enough cells in well", "Call": "inactive"}
{"target": "Smim8", "Tnf reporter robust z-score": 0.37, "fewer than 50 cells in well": "enough cells in well", "Call": "inactive"}
{"target": "Ehd2", "Tnf reporter robust z-score": -0.78, "fewer than 50 cells in well": "enough cells in well", "Call": "inactive"}
{"target": "B130006D01Rik", "Tnf reporter robust z-score": -0.05, "fewer than 50 cells in well": "enough cells in well", "Call": "inactive"}
{"target": "Tkt", "Tnf reporter robust z-score": -0.29, "fewer than 50 cells in well": "enough cells in well", "Call": "inactive"}
